Laboratory results published in paper doi:10.1101/2024.11.20.624400.
Results are given in words; binding and its absence hold for the method and conditions named. A result given as binding can be weak or reduced; the word gives no strength. Where a sequence is shown, tags or fusion partners need not be part of it. For some assays here: In cells and extracts the contact can be indirect.

How the values were obtained:
[1] = target: T1, EDS1^405-554, fragment of the EDS1 EP domain, in pDEST-GBKT7 (BD) (A. thaliana) (UniProt Q9SU72); test: two-hybrid
T1 sequence: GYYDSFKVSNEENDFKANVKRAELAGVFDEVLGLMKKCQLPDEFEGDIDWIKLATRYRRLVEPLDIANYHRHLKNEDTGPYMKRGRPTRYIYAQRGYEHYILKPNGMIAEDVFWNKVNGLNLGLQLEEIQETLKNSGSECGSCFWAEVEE

[2] = target: T2, HA-EDS1 made in Sf9 cells (full-length A. thaliana EDS1, pFastBac HTB) (A. thaliana) (UniProt Q9SU72); test: co-IP
T2 sequence: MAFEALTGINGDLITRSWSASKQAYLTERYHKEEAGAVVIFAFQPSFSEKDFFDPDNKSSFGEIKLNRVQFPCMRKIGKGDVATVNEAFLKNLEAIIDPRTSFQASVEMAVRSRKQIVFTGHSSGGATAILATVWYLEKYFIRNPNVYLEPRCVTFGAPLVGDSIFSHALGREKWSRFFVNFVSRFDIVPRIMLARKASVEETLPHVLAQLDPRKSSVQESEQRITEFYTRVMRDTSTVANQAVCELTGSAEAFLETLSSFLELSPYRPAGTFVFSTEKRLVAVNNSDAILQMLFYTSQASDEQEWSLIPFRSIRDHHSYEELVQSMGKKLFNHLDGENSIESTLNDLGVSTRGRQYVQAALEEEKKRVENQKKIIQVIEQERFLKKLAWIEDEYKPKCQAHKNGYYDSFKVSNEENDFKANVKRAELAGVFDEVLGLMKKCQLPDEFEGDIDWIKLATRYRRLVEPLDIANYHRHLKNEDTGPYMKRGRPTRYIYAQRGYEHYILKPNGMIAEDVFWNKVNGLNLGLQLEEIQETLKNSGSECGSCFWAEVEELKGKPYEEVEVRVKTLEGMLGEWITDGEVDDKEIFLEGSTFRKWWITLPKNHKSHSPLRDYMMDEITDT

In the case of “M. persicae CathB6 catalytic domain in pDEST-GADT7 (AD) (Myzus persicae) (domain or fragment)”, the binding [1] is reported as “binds”.
“CathB6-GFP made in Sf9 cells (CathB6 catalytic domain Arg61-Asn338, pFastBac HTB) (Myzus persicae) (domain or fragment)” was tested, and the binding [2] was “binds”.
